These are yes or no findings as the source states them, for the method shown. Some entries that bind do so weakly or less than the wild type.
What was measured:
[1] = target: 3Δ mutant of Rf2a (rice (Oryza sativa)) (UniProt Q69IL4); assay: EMSA with BoxIIml DNA probe
[2] = target: Rf2a transcription factor (rice (Oryza sativa)) (UniProt Q69IL4); assay: EMSA with BoxIIml DNA probe
[3] = target: Rf2a transcription factor (rice (Oryza sativa)) (UniProt Q69IL4); assay: EMSA, equimolar Rf2a and 3Δ with 32P-labeled BoxIIml DNA probe; band of intermediate mobility
[4] = target: 3Δ mutant of Rf2a (rice (Oryza sativa)) (UniProt Q69IL4); assay: EMSA, E. coli protein extract with 32P-labeled BoxIIml DNA probe; homodimer inferred from the shifted band

Measured: binding

B1: 3Δ mutant of Rf2a (protein)
chain: ESSSAAAHGARPKHQHSLSMDESMSIKAEELVGASPGTEGMSSAEAKKAVSAVKLAELALVDPKRAKRIWANRQSAARSKERKMRYIAELERKVQTLQTEATTLSAQLALLQRDTSGLTTENSELKLRLQTMEQQVHLQDALNDTLKSEVQRLKVATGQMANGGGMMMNFGGMPHQ
binds: [1] | [2] | [3] | [4]
